Data reported in article PMC12597828.
These are yes or no findings as the source states them, for the method shown. Binding can be weak; no strength is given. Where a sequence is shown, tags or fusion partners need not be part of it.

Target: T1, TetR–FLAG–MAU2 (UniProt Q9Y6X3)
T1 sequence: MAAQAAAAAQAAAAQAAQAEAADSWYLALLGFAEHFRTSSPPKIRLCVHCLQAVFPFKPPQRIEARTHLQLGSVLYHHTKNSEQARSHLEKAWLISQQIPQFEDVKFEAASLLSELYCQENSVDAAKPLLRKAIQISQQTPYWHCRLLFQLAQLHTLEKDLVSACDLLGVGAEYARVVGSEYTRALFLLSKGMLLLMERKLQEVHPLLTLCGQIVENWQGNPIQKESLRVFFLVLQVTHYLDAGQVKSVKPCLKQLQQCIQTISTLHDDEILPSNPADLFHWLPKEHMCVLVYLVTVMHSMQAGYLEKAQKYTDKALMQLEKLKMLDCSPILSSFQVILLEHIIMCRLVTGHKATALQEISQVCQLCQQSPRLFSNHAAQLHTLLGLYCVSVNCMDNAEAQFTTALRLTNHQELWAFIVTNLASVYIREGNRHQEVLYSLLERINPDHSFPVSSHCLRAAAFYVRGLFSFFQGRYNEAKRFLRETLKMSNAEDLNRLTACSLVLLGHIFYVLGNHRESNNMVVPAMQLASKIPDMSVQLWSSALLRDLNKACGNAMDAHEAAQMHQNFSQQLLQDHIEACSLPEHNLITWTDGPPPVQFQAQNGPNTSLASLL
Test: ChIP (qPCR and sequencing) of factors co-recruited to TetO arrays by a tethered TetR fusion; HAP1 cells with 27 genomic TetO platforms stably expressing TetR–FLAG–MAU2 or TetR–FLAG–mCherry; 1% formaldehyde cross-linking for 10 min; ChIP with an antibody to each factor (anti-V5 for V5–MAU2); TetO DNA read by qPCR or sequencing; enrichment relative to Cherry cells; recruitment was lost after 1 h doxycycline; NIPBL recruitment was also tested after 2 h RAD21 depletion

Which binding does the source give for SMC1 (human (endogenous in HAP1)) here?
Its binding is “binds”.
